Measured values as given in article PMC6212794, “Crystal structure of the modification-dependent SRA-HNH endonuclease TagI”.
For at least one entry, the source does not settle the construct or the ends of the probe. Weaker means in comparison with the reference protein, sequence or condition of that experiment. Protein sequences can lack the tags named with them.

Target: T1, TagI (Thermocrispum agreste) (UniProt A0A3F2YM30)
T1 sequence (looked up, limits assumed): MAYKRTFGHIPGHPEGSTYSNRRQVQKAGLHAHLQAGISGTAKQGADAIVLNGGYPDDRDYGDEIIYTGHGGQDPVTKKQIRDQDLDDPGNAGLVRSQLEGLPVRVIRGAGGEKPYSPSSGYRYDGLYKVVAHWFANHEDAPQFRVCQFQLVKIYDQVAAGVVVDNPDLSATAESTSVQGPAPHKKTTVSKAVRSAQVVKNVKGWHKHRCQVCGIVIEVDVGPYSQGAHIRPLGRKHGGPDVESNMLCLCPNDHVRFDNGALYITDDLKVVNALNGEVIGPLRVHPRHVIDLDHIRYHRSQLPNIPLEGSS
Assay: analytical gel filtration (SEC co-migration)
Conditions: broad complex peak, less tight than fully methylated

Sequence	binding result (5mC at position 8 of strand 2, recombinant protein)	binding result (5mC at position 8 of strand 1, recombinant protein)
CCTAGAGCAGCAATCCC (double strand) [17mer hemimethylated duplex, bottom strand 5mC]	binds more weakly	–
CCTAGAGCAGCAATCCC (double strand) [17mer hemimethylated duplex, top strand 5mC]	–	binds more weakly
